Protein sequences, listed by entry. Tags and fused reporters are not part of them.
UniProt P14635: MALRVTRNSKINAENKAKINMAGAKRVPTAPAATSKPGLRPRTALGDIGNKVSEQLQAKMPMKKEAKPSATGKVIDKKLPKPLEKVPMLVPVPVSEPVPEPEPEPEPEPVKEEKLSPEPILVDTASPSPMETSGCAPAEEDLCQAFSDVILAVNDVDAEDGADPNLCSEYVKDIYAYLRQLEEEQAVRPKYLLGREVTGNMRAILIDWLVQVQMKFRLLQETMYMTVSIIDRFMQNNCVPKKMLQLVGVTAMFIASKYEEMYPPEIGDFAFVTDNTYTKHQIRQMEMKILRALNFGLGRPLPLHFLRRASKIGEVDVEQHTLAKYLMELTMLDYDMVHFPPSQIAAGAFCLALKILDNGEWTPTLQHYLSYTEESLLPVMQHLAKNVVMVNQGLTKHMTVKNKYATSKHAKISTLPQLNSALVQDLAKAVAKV
UniProt O60566: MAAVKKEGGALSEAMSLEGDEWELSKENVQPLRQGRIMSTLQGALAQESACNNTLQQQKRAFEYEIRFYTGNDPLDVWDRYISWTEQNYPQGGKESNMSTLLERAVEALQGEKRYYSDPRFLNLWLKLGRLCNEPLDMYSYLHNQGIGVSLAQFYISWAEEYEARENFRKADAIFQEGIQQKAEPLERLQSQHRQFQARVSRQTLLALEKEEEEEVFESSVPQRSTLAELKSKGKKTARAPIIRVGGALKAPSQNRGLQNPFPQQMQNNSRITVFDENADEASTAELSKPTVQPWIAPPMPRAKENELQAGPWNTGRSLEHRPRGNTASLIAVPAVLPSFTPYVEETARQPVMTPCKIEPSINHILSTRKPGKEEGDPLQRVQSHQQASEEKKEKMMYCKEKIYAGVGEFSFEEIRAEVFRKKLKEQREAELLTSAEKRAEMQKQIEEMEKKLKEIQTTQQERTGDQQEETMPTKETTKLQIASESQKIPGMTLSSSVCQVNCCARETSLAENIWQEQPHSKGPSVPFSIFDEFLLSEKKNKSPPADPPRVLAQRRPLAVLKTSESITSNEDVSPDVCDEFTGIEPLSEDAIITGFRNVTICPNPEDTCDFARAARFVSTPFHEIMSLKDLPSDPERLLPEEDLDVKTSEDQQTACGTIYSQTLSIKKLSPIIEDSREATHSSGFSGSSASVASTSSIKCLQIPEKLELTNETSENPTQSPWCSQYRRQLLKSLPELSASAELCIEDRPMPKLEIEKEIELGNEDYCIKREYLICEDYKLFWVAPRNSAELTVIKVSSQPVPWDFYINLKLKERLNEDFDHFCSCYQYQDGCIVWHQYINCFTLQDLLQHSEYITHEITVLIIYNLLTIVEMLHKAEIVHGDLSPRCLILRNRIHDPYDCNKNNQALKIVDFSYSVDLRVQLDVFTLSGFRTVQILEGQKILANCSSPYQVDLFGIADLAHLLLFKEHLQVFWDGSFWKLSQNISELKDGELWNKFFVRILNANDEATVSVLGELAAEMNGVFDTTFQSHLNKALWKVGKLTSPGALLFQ
UniProt Q13257: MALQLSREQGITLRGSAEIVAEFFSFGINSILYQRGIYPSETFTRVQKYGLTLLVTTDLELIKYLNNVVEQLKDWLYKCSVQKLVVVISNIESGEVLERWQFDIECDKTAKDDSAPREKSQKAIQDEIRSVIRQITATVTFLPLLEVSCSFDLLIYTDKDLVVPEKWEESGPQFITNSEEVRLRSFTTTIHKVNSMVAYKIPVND
UniProt Q15154: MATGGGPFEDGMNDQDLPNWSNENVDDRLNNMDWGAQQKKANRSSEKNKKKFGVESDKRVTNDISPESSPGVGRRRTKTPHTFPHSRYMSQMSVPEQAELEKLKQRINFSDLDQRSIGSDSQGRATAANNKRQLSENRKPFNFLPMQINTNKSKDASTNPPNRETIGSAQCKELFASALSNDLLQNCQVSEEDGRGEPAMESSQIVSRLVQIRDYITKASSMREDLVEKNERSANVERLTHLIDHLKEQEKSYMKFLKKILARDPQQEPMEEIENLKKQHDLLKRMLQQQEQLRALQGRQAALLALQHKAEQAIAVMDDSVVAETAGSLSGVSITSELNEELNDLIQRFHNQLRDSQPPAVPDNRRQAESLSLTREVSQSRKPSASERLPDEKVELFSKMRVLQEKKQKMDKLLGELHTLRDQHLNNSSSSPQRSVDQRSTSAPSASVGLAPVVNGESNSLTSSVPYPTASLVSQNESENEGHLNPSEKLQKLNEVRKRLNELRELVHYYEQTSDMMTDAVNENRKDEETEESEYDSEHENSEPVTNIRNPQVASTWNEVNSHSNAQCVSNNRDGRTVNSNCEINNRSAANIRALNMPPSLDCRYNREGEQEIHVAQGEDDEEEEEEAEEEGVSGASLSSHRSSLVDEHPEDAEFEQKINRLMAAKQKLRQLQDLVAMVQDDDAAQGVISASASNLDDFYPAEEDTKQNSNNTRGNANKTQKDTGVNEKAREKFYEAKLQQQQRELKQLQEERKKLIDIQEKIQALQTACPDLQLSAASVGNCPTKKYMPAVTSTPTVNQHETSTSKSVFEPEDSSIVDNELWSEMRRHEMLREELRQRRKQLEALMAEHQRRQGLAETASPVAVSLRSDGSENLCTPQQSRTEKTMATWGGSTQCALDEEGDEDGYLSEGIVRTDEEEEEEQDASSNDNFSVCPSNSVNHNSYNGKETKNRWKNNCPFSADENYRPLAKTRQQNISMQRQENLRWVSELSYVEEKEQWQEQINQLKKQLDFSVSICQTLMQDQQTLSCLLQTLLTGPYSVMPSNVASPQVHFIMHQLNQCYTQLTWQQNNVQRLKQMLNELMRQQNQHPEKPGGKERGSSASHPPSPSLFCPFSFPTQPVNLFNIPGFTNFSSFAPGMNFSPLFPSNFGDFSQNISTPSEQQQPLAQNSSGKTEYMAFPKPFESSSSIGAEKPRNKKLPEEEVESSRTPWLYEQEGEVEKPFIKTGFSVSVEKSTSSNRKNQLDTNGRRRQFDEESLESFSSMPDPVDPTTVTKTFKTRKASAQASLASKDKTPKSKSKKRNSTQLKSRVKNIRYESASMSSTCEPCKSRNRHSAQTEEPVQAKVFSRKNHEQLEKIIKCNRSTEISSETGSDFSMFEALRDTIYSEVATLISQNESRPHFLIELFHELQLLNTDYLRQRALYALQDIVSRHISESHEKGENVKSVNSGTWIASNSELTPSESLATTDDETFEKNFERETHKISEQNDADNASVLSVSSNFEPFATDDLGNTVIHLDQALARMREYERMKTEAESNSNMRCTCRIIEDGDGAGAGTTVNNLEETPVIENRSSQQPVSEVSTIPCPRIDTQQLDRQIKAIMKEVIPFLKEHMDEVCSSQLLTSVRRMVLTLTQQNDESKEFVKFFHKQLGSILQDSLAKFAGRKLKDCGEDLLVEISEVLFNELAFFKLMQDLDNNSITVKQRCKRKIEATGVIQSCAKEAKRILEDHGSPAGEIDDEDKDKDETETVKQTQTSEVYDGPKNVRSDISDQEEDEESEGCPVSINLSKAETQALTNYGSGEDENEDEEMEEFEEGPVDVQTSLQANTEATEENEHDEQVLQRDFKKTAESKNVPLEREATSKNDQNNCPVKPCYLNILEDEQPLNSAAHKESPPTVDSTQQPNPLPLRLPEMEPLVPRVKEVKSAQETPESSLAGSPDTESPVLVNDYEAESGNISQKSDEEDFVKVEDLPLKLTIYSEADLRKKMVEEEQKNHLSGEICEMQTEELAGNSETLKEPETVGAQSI

According to publication PMC11747444:

Target: Flag-tagged wild-type cyclin B1 (human) (UniProt P14635)
Assay: affinity purification with mass spectrometry; α-Flag IP from nocodazole-arrested HeLa cells, uninduced or expressing Flag-cyclin B1^wt or ^mut; in-gel digest, DIA mass spectrometry, three independent experiments

binding, binds:
budding uninhibited by bezimidazoles (BUB1B) (from UniProt O60566 1-1050)
mitotic arrest deficient 2-like protein 1 (MAD2L1) (from UniProt Q13257 1-205)
pericentriolar material 1 (PCM1) (from UniProt Q15154 1-2024)

No constants are given. Whether binding was seen depends on the method and setting. Binding seen in cells or lysates may run through a third protein. These calls come from enrichment with a bait or labelling near it, and not all partners need be listed.
